Results: the supplement of paper PMC6411743
± gives the standard deviation of the averaged measurements. This is a selection; strong and weak results do not stand in their true shares.

Assays:
Assay in all cases: NP40-soluble protein abundance relative to vehicle (solubility fold change) (ratio); higher = more soluble protein in presence of AMP-PNP
[1] = target: T1, UniProt Q5VST6
T1 sequence (whole entry): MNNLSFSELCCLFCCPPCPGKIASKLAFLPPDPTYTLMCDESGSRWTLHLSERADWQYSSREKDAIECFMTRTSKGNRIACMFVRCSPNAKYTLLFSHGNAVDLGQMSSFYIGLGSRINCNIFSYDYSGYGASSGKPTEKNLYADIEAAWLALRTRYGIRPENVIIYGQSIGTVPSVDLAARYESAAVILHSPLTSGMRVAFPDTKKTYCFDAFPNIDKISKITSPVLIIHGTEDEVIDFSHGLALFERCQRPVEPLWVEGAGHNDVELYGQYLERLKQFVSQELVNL
How it was run: (§1)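 Data come from three independent experiments in which Dounce-homogenised Jurkat crude lysate was treated at eight concentrations from 0.1 to 10 mM. Treatment ran 10 min at room temperature and then 3 min at 37 °C, after which 0.8% NP40 and benzonase were added for 60 min at 4 °C before ultracentrifugation. The supernatant underwent TMT labelling and LC-MS/MS, and vsn-normalised intensities were expressed as fold change against the detergent-processed vehicle in each replicate.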

[2] = target: T2, UniProt Q5W0B1
T2 sequence (whole entry): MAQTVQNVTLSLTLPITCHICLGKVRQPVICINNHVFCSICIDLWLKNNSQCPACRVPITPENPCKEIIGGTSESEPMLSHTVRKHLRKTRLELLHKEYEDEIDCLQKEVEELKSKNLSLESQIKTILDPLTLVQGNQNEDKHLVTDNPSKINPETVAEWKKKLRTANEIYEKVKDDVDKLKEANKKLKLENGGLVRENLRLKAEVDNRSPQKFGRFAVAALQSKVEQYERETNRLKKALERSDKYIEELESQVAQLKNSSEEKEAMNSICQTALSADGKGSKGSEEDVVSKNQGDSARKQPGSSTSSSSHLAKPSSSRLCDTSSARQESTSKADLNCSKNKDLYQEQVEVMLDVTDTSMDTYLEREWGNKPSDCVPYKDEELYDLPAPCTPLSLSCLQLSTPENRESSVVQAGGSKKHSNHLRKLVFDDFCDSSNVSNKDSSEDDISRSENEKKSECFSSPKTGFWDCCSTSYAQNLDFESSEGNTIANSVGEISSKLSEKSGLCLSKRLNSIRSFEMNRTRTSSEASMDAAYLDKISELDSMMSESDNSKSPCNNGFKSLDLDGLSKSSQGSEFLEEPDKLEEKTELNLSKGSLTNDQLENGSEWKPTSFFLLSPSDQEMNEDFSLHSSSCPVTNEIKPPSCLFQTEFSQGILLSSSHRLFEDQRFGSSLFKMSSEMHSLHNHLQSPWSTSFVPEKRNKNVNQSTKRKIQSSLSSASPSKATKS
How it was run: as §1

[3] = target: T3, UniProt Q68CQ4
T3 sequence (whole entry): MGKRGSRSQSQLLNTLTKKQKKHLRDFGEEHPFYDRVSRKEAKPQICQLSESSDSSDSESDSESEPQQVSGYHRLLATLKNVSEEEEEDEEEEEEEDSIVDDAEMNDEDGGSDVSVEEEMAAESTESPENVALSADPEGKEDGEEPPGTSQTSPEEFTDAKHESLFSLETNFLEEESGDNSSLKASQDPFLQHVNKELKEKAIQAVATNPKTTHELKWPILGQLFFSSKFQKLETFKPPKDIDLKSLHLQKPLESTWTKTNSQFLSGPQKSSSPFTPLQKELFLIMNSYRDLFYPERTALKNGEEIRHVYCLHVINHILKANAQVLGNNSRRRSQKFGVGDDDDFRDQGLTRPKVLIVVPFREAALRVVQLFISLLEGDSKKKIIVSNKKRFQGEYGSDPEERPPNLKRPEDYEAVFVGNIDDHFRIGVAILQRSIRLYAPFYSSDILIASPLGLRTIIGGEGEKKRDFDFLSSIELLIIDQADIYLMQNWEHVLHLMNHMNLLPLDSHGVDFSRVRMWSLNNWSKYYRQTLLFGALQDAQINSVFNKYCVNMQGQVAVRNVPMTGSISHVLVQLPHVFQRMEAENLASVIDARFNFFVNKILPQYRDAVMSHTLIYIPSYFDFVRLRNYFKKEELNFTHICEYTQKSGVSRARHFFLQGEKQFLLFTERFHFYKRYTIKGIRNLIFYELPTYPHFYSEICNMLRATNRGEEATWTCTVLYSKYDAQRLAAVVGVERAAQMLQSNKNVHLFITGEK
How it was run: as §1

[4] = target: T4, UniProt Q68CZ6
T4 sequence (whole entry): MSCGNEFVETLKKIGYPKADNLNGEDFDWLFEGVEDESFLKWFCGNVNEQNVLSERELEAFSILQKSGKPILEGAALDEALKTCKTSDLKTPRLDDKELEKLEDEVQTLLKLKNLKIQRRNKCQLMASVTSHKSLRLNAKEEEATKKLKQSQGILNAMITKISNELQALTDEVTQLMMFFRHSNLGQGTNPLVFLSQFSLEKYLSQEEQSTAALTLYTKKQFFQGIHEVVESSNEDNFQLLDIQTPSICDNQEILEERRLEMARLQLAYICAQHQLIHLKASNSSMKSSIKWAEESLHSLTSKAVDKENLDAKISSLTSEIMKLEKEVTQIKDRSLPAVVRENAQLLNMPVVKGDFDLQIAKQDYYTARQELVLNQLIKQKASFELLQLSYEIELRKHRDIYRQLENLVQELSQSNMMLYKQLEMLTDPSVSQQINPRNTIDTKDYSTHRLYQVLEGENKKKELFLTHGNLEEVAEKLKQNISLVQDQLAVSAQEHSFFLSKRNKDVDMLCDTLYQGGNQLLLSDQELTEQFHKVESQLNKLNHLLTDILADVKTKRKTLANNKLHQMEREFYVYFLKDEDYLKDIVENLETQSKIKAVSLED
How it was run: as §1

[5] = target: T5, UniProt Q68D10 and related entries
T5 sequence (whole entry): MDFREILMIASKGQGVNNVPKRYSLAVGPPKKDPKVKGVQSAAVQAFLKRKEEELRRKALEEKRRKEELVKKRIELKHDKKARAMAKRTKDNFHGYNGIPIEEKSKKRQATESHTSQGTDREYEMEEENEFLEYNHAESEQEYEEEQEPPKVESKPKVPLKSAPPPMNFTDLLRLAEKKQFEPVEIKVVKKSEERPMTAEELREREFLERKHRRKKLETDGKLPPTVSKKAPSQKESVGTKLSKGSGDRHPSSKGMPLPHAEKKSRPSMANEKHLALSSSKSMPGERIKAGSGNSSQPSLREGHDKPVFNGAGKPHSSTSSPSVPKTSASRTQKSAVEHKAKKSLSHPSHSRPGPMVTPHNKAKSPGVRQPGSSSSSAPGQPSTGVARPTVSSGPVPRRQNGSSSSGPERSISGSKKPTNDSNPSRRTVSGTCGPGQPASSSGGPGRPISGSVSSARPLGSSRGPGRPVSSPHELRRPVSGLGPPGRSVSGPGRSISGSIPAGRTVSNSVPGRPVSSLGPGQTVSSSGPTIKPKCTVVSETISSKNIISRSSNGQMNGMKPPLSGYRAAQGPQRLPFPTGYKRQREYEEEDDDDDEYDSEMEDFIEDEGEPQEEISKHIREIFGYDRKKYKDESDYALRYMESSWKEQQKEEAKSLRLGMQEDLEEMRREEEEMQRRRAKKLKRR
How it was run: as §1

Q: `Nc1ncnc2c1ncn2[C@@H]1O[C@H](COP(=O)(O)OP(=O)(O)NP(=O)(O)O)[C@@H](O)[C@H]1O` [adenylyl imidodiphosphate] was tested. Which NP40-soluble protein abundance ([1]; concentration: 1mM) did it give?
A: 1.05 ± 0.094

Q: And the NP40-soluble protein abundance ([1]; concentration: 2mM)?
A: 1 ± 0.1

Q: And the NP40-soluble protein abundance ([1]; concentration: 4mM)?
A: 1.02 ± 0.095

Q: And the NP40-soluble protein abundance ([1]; concentration: 6mM)?
A: 1.01 ± 0.078

Q: What about the NP40-soluble protein abundance ([1]; concentration: 8mM) of the same compound?
A: 1.02 ± 0.071

Q: And the NP40-soluble protein abundance ([1]; concentration: 10mM)?
A: 1.01 ± 0.14

Q: What about the NP40-soluble protein abundance ([2]; concentration: 1mM) of the same compound?
A: 1.01 ± 0.031

Q: And the NP40-soluble protein abundance ([2]; concentration: 2mM)?
A: 1.04 ± 0.014

Q: And the NP40-soluble protein abundance ([2]; concentration: 4mM)?
A: 1.03 ± 0.027

Q: What about the NP40-soluble protein abundance ([2]; concentration: 6mM) of the same compound?
A: 1 ± 0.031

Q: And the NP40-soluble protein abundance ([2]; concentration: 8mM)?
A: 0.967 ± 0.016

Q: What about the NP40-soluble protein abundance ([2]; concentration: 10mM) of the same compound?
A: 1.02 ± 0.057

Q: What about the NP40-soluble protein abundance ([3]; concentration: 1mM) of the same compound?
A: 1.013 ± 0.0022

Q: What about the NP40-soluble protein abundance ([3]; concentration: 2mM) of the same compound?
A: 1.16 ± 0.2

Q: What about the NP40-soluble protein abundance ([3]; concentration: 4mM) of the same compound?
A: 1.07 ± 0.046

Q: What about the NP40-soluble protein abundance ([3]; concentration: 6mM) of the same compound?
A: 1.06 ± 0.013

Q: What about the NP40-soluble protein abundance ([3]; concentration: 8mM) of the same compound?
A: 1.08 ± 0.012

Q: What about the NP40-soluble protein abundance ([3]; concentration: 10mM) of the same compound?
A: 1.08 ± 0.019

Q: What about the NP40-soluble protein abundance ([4]; concentration: 1mM) of the same compound?
A: 1.01 ± 0.045

Q: What about the NP40-soluble protein abundance ([4]; concentration: 2mM) of the same compound?
A: 1.01 ± 0.034

Q: What about the NP40-soluble protein abundance ([4]; concentration: 4mM) of the same compound?
A: 0.998 ± 0.042

Q: What about the NP40-soluble protein abundance ([4]; concentration: 6mM) of the same compound?
A: 0.9579 ± 0.007

Q: What about the NP40-soluble protein abundance ([4]; concentration: 8mM) of the same compound?
A: 0.954 ± 0.059

Q: What about the NP40-soluble protein abundance ([4]; concentration: 10mM) of the same compound?
A: 0.953 ± 0.012

Q: And the NP40-soluble protein abundance ([5]; concentration: 1mM)?
A: 1.042 ± 0.01

Q: And the NP40-soluble protein abundance ([5]; concentration: 2mM)?
A: 1.13 ± 0.075

Q: What about the NP40-soluble protein abundance ([5]; concentration: 4mM) of the same compound?
A: 1.13 ± 0.027

Q: What about the NP40-soluble protein abundance ([5]; concentration: 6mM) of the same compound?
A: 1.19 ± 0.041

Q: And the NP40-soluble protein abundance ([5]; concentration: 8mM)?
A: 1.24 ± 0.037

Q: What about the NP40-soluble protein abundance ([5]; concentration: 10mM) of the same compound?
A: 1.33 ± 0.07
